The results in this text go back to patent US11771717B2, “Applications of pair-production for improved radiotherapy” (Henry Ford Health System, priority 2017, dated 2023).

“Also recorded” adds a separate entry of the source.

A short description of the data set: Emission spectra of irradiated solution by scintillation detector (evidence of pair production). The note with it: 25 g dissolved in 50 ml of water.

As for sodium phosphotungstate hydrate, the “emission spectra with vs without dissolved metal” value (irradiated with 6 MV photons) is “nearly identical with or without dissolved metal”. In addition, for the setting “irradiated with 18 MV photons, hydrate”, the “emission of photons at 511 keV” value is “increased emission of photons around 511 keV and higher; also recorded: significant increase in photons emitted at 511 keV”.
